Key:
Assay type in all cases: cell-based
[1] = system: series of human tumor cell lines; assay: Antiproliferative activity, series of human tumor cell lines (summary); settings: span over the cell line panel, 72 h, SRB assay, read-out: IC50 across the human tumor cell lines of Table 3
Method: (§1) Human tumor cells were seeded in 96-well cell culture plastic plates, allowed to attach, and exposed to scalar concentrations of the test compounds.
(§2) The antiproliferative activity was evaluated on a series of human tumor cell lines (NCI-H460: non small cell lung cancer; CAPAN 1: human pancreatic ductal adenocarcinoma; A431: human epidermoid carcinoma; HeLa: human epithelioid cervix carcinoma; HT29: human colon adenocarcinoma; DU145: human prostate carcinoma; HepG2: human liver hepatocellular carcinoma; A2780: human ovarian carcinoma; A2780-Dox: human doxorubicin-resistant ovarian carcinoma). The activity was assessed after 72 h with the SRB assay.

U937 = assay: Cytotoxicity assay (MTT, 72 h) U937; settings: Homo sapiens, U-937, read-out: IC50 ± SD U937
Method: as §1

A2780-Dx = assay: Cytotoxicity assay (SRB, 72 h) A2780-Dx; settings: Homo sapiens, multidrug-resistant ovarian carcinoma, read-out: IC50 ± SD A2780-Dx
RAMOS = assay: Cytotoxicity assay (MTT, 72 h) RAMOS; settings: Homo sapiens, read-out: IC50 ± SD RAMOS
Method: as §1

Jurkat-cp = assay: Cytotoxicity assay (MTT, 72 h) Jurkat-cp; settings: Homo sapiens, read-out: IC50 ± SD Jurkat-cp
Method: as §1

THP1 = assay: Cytotoxicity assay (MTT, 72 h) THP1; settings: Homo sapiens, THP-1, read-out: IC50 ± SD THP1
Method: as §1

HeLa = assay: Cytotoxicity assay (SRB, 72 h) HeLa; settings: Homo sapiens, read-out: IC50 ± SD HeLa
Method: as §1, §2

JECO-1 = assay: Cytotoxicity assay (MTT, 72 h) JECO-1; settings: Homo sapiens, read-out: IC50 ± SD JECO-1
Method: as §1

MM481 = assay: Cytotoxicity assay, primary mesothelioma MM481; settings: Homo sapiens; epithelioid, 72 h, SBR assay; read-out: IC50 ± SD MM481
MM491 = assay: Cytotoxicity assay, primary mesothelioma MM491; settings: Homo sapiens; biphasic, 72 h, SBR assay; read-out: IC50 ± SD MM491
MM487 = assay: Cytotoxicity assay, primary mesothelioma MM487; settings: Homo sapiens, biphasic, 72 h, SBR assay, read-out: IC50 ± SD MM487
NCI-H460 = assay: Cytotoxicity assay (SRB, 72 h) NCI-H460; settings: Homo sapiens
Method: as §1, §2

MAVER-2 = assay: Cytotoxicity assay (MTT, 72 h) MAVER-2; settings: Homo sapiens, read-out: IC50 ± SD MAVER-2
Method: as §1

MV4-11 = assay: Cytotoxicity assay (MTT, 72 h) MV4-11; settings: Homo sapiens, read-out: IC50 ± SD MV4-11
Method: as §1

MM288 = assay: Cytotoxicity assay, primary mesothelioma MM288; settings: Homo sapiens; epithelioid, 72 h, SBR assay; read-out: IC50 ± SD MM288
KM-H2 = assay: Cytotoxicity assay (MTT, 72 h) KM-H2; settings: Homo sapiens, read-out: IC50 ± SD KM-H2
Method: as §1

MM432 = assay: Cytotoxicity assay, primary mesothelioma MM432; settings: Homo sapiens; sarcomatoid, 72 h, SBR assay; read-out: IC50 ± SD MM432
MM404 = assay: Cytotoxicity assay, primary mesothelioma MM404; settings: Homo sapiens; epithelioid, 72 h, SBR assay; read-out: IC50 ± SD MM404
U-2932 = assay: Cytotoxicity assay (MTT, 72 h) U-2932; settings: Homo sapiens, U2932, read-out: IC50 ± SD U-2932
Method: as §1

[2] = system: hematologic cancer cell lines; assay: Screening on hematologic cancer cell lines (summary); settings: Homo sapiens, read-out: IC50 across hematologic cancer cell lines (Tables 5 and 6); span over the cell line panel, 72 h, MTT assay
Method: as §1
To assess the antitumor potential of compound 3d, a large screening on hematologic cancer cell lines was carried out (Tables 5 and 6).

K 562 = assay: Cytotoxicity assay (MTT, 72 h) K 562; settings: Homo sapiens, K562, read-out: IC50 ± SD K 562
Method: as §1

Z-138 = assay: Cytotoxicity assay (MTT, 72 h) Z-138; settings: Homo sapiens, read-out: IC50 ± SD Z-138
Method: as §1

MM472 = assay: Cytotoxicity assay, primary mesothelioma MM472; settings: Homo sapiens; sarcomatoid, 72 h, SBR assay; read-out: IC50 ± SD MM472
A431 = assay: Cytotoxicity assay (SRB, 72 h) A431; settings: Homo sapiens, A-431, read-out: IC50 ± SD A431
Method: as §1, §2

ARH-77 = assay: Cytotoxicity assay (MTT, 72 h) ARH-77; settings: Homo sapiens, read-out: IC50 ± SD ARH-77
Method: as §1

MINO = assay: Cytotoxicity assay (MTT, 72 h) MINO; settings: Homo sapiens, read-out: IC50 ± SD MINO
Method: as §1

REC-1 = assay: Cytotoxicity assay (MTT, 72 h) REC-1; settings: Homo sapiens, Rec1, read-out: IC50 ± SD REC-1
Method: as §1

NB4 = assay: Cytotoxicity assay (MTT, 72 h) NB4; settings: Homo sapiens, NB-4, read-out: IC50 ± SD NB4
Method: as §1

MM473 = assay: Cytotoxicity assay, primary mesothelioma MM473; settings: Homo sapiens, epithelioid, 72 h, SBR assay, read-out: IC50 ± SD MM473
DU145 = assay: Cytotoxicity assay (SRB, 72 h) DU145; settings: Homo sapiens, DU-145, read-out: IC50 ± SD DU145
Method: as §1, §2

H929 = assay: Cytotoxicity assay (MTT, 72 h) H929; settings: Homo sapiens, NCI-H929, read-out: IC50 ± SD H929
Method: as §1

MM317 = assay: Cytotoxicity assay, primary mesothelioma MM317; settings: Homo sapiens; epithelioid, 72 h, SBR assay; read-out: IC50 ± SD MM317

- IC50 [1]: > 0.9 µM
- IC50 [2]: 0.6 to 9 µM
Structure (SMILES): O=C(CCCCCCC(=O)Nc1ccccc1)NO [SAHA, suberoylanilide hydroxamic acid]
- IC50 (U937): 1.62 ± 0.3 µM
- IC50 (A2780-Dx): 3.3 ± 0.6 µM
- IC50 (RAMOS): 3.9 ± 0.7 µM
- IC50 (Jurkat-cp): 1.99 ± 0.2 µM
- IC50 (THP1): 3.9 ± 1.4 µM
- IC50 (HeLa): 2.7 ± 0.2 µM
- IC50 (JECO-1): 2.6 ± 0.7 µM
- IC50 (MM481): 11.5 ± 0.4 µM
- IC50 (MM491): 10.7 ± 0.4 µM
- IC50 (MM487): 7.4 ± 0.4 µM
- IC50 (NCI-H460; NCI-H460, 72 h, SRB assay, read-out: IC50 ± SD NCI-H460): 5 ± 0.2 µM
- IC80 (NCI-H460; NCI-H460 cells): ~5 µM
- IC50 (MAVER-2): 5.4 ± 1.2 µM
- IC50 (MV4-11): 3.84 ± 0.8 µM
- IC50 (MM288): 3.8 ± 0.2 µM
- IC50 (KM-H2): 1.2 ± 0.2 µM
- IC50 (MM432): 6.9 ± 1 µM
- IC50 (MM404): 8.8 ± 1.2 µM
- IC50 (U-2932): 1.1 ± 0.2 µM
- IC50 (K 562): 1.53 ± 0.4 µM
- IC50 (Z-138): 0.7 ± 0.1 µM
- IC50 (MM472): 4.6 ± 0.8 µM
- IC50 (A431): 3.5 ± 0.1 µM
- IC50 (ARH-77): 3.9 ± 0.5 µM
- IC50 (MINO): 1.1 ± 0.3 µM
- IC50 (REC-1): 0.94 ± 0.2 µM
- IC50 (NB4): 3.3 ± 0.6 µM
- IC50 (MM473): 8.5 ± 0.4 µM
- IC50 (DU145): 0.87 ± 0.03 µM
- IC50 (H929): 0.56 ± 0.07 µM
- IC50 (MM317): 11.2 ± 0.9 µM
